Source: PMC2660581
Where two headings read alike, the source gives them in different places. These are yes or no findings as the source states them, for the method shown.

Amino acid sequences for entries named in this document (tags omitted). Residues count along the entry.
UniProt O14727, residues 1-92: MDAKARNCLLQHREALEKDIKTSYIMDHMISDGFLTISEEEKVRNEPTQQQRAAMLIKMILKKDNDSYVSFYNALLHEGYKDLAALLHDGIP
NOD2 CARD (1+2) (Q9HC29, residues 1-267): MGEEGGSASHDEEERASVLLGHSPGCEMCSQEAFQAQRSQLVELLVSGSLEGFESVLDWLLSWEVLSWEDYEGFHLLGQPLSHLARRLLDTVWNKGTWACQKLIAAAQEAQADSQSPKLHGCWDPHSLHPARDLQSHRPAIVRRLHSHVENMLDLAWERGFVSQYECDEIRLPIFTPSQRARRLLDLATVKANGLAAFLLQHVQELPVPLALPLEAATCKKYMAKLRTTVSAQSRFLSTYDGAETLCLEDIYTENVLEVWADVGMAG
NOD2 CARD (1) (Q9HC29, residues 1-116): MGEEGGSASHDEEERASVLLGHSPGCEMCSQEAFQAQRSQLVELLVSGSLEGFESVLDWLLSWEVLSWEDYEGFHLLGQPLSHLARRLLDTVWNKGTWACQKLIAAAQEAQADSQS
NOD2 CARD (2) (Q9HC29, residues 135-255): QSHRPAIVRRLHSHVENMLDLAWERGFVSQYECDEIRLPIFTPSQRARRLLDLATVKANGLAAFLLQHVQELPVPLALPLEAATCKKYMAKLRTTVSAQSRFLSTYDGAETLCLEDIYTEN
UniProt Q9ULZ3, residues 1-94: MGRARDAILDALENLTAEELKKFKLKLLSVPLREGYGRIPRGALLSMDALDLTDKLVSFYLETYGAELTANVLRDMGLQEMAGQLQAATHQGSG

Columns and labels:
Test in all cases: two-hybrid; … GAL4 Two-Hybrid System 3, S. cerevisiae AH109 co-transformed with pGBKT7 and pGADT7 fusions; growth on SD/-Ade/-His/-Leu/-Trp, 4 days at 30°C; “each against all” screen (26×26) and later tests with refined constructs
[1] = target: T1, NLRP1 PYD (UniProt Q9C000)
T1 sequence: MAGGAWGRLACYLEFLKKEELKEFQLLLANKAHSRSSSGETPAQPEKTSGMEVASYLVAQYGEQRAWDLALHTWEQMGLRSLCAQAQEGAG

[2] = target: APAF1 CARD (UniProt O14727)
[3] = target: T2, NLRP1 CARD (UniProt Q9C000)
T2 sequence: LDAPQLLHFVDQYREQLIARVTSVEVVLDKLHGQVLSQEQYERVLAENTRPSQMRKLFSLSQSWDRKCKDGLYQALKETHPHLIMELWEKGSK

[4] = target: T3, NLRP7 PYD (UniProt Q8WX94)
T3 sequence: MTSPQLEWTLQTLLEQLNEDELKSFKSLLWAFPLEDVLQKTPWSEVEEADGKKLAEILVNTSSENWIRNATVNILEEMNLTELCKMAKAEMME

[5] = target: T4, NLRP2 PYD (UniProt Q9NX02)
T4 sequence: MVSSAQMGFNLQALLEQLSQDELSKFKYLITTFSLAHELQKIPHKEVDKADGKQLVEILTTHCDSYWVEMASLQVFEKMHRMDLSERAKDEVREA

[6] = target: T5, NLRP11 PYD (UniProt P59045)
T5 sequence: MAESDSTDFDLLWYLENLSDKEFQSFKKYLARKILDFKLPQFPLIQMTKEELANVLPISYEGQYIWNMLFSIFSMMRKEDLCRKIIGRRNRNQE

[7] = target: T6, NLRP12 PYD (UniProt P59046)
T6 sequence: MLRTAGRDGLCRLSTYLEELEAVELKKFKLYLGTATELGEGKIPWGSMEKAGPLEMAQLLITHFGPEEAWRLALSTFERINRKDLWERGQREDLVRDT

[8] = target: T7, NLRP10 PYD (UniProt Q86W26)
T7 sequence: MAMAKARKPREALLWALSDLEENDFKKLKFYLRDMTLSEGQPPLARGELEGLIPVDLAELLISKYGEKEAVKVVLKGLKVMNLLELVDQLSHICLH

[9] = target: NOD2 CARD (2) (human) (UniProt Q9HC29)
[10] = target: T8, NOD1 CARD (1–110) (UniProt Q9Y239)
T8 sequence: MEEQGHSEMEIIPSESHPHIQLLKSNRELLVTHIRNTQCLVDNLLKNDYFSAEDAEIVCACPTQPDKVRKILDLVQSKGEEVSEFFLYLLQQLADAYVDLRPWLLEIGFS

[11] = target: NOD2 CARD (1) (human) (UniProt Q9HC29)
[12] = target: APAF1 CARD (UniProt O14727); remark: listed apart in the source
[13] = target: T9, NOD1 CARD (16–108) (UniProt Q9Y239)
T9 sequence: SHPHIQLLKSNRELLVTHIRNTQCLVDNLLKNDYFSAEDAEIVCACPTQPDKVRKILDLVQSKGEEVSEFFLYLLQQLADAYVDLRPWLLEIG

[14] = target: NOD2 CARD (1+2) (human) (UniProt Q9HC29)
[15] = target: NLRC5 CARD (UniProt Q86WI3)
[16] = target: T10, CASP1 CARD, P29466; conditions: remark: other sources report otherwise
T10 chain: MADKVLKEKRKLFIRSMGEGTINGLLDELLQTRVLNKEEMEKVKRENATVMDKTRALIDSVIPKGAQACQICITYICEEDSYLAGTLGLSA

Measured: binding

APAF1 CARD (from UniProt O14727 1-92) (domain or fragment)
no binding: [1] | [2] | [3]

ASC PYD (from UniProt Q9ULZ3 1-94) (domain or fragment)
no binding: [1] | [4] | [5] | [6] | [7] | [3] | [8]

B1: CASP4 CARD (domain or fragment, UniProt P49662 1-89)
chain: MAEGNHRKKPLKVLESLGKDFLTGVLDNLVEQNVLNWKEEEKKKYYDAKTEDKVRVMADSMQEKQRMAGQMLLQTFFNIDQISPNKKAH
no binding: [9] | [10] | [11] | [12] | [13] | [14]

B2: NLRC5 CARD (domain or fragment, UniProt Q86WI3 1-98)
chain: MDPVGLQLGNKNLWSCLVRLLTKDPEWLNAKMKFFLPNTDLDSRNETLDPEQRVILQLNKLHVQGSDTWQSFIHCVCMQLEVPLDLEVLLLSTFGYDD
no binding: [15]

B3: CASP1 CARD, P29466 1-91 (domain or fragment)
chain: MADKVLKEKRKLFIRSMGEGTINGLLDELLQTRVLNKEEMEKVKRENATVMDKTRALIDSVIPKGAQACQICITYICEEDSYLAGTLGLSA
no binding: [16]
